These are yes or no findings as the source states them, for the method shown. In cells and extracts the contact can be indirect. For part of these data: Binding can be weak; no strength is given. Where a sequence is shown, tags or fusion partners need not be part of it.
T1: myc-SNX17 (full-length mouse SNX17 with a 9xmyc epitope) (mouse) (UniProt Q8BVL3)
T1 sequence: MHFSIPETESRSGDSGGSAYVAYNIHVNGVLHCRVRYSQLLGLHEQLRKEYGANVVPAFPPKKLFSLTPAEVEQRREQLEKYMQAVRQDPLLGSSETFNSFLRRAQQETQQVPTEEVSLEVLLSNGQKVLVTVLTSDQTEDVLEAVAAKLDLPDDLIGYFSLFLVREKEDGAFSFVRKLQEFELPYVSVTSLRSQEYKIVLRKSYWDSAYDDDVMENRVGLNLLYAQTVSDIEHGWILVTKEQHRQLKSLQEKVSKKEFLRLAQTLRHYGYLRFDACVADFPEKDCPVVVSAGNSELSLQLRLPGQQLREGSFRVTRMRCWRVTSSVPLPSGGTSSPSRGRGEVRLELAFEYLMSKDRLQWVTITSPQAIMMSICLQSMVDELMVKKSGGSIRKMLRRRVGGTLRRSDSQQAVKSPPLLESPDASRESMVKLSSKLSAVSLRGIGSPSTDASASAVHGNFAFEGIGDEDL

By UniProt entry, the sequences of proteins in these tests, tags left out. Where a name states a change or a piece, a line headed by the entry shows the natural chain unless it says otherwise.
UniProt Q14114: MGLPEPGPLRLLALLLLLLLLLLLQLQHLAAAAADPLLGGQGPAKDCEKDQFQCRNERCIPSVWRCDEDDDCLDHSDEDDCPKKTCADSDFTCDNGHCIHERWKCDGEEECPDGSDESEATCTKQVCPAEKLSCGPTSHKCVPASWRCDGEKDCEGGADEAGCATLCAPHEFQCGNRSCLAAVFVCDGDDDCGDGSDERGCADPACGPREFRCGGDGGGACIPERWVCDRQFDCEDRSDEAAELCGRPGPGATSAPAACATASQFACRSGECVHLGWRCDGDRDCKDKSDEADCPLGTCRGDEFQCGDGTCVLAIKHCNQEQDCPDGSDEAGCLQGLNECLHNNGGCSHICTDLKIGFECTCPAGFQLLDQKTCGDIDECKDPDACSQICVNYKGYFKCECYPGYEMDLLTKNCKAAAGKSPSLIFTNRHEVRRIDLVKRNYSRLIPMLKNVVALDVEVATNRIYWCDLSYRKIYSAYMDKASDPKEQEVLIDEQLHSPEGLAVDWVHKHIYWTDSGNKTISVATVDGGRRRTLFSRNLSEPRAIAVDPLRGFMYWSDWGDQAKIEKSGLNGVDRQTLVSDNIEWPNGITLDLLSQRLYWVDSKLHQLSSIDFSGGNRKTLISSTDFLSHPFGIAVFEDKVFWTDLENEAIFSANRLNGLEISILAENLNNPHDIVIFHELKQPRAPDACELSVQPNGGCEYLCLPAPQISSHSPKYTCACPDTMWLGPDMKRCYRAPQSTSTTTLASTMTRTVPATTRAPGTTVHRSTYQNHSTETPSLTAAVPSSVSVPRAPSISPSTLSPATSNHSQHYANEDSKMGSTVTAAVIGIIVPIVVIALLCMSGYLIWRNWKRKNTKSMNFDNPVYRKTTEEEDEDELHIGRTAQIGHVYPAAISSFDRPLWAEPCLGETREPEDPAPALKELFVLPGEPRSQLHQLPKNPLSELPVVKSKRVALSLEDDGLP

T2: GST-SNX17 (full-length SNX17 fused to GST) (UniProt Q8BVL3)
T2 sequence: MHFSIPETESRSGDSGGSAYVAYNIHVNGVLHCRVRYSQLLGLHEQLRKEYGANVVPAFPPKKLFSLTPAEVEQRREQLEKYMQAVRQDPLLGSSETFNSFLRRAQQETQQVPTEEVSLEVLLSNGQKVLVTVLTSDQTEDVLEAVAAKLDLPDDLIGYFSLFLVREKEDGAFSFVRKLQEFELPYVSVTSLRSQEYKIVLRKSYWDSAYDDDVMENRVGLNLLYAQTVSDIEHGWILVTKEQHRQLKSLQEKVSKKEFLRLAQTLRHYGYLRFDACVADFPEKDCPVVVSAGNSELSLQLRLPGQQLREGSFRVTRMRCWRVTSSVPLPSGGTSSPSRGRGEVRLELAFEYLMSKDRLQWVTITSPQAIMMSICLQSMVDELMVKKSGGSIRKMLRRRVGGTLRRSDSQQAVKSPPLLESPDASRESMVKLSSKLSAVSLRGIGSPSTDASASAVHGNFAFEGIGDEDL


Key:
[1] = target: T1, myc-SNX17 (full-length mouse SNX17 with a 9xmyc epitope) (mouse); assay: co-IP; extracts of HEK293 cells transiently transfected with myc-SNX17 and HA-ApoER2 (wild type or NPxA); immunoprecipitated with anti-myc, blotted with anti-HA
[2] = target: T2, GST-SNX17 (full-length SNX17 fused to GST); assay: pull-down; GST-SNX17 (full length) on glutathione agarose beads incubated with lysates of HEK 293 cells transfected with HA-ApoER2 wild-type or NPxY/A; HUNT buffer, 3 h at 4°C; anti-HA western blot; only the target purified
[3] = target: GST-ApoER2 (full-length cytoplasmic domain of ApoER2 fused to GST); assay: pull-down; GST-ApoER2 tail on glutathione agarose beads incubated with lysates of HEK 293 cells transfected with myc-SNX17 constructs; HUNT buffer (20 mM Tris-HCl pH 8.0, 100 mM NaCl, 1 mM EDTA, 0.5% NP-40), 3 h at 4°C; anti-myc western blot; only the target purified

Molecule | binding [1] | binding [2] | binding [3]
HA-ApoER2 mutated (NPxY/A) (from UniProt Q14114) (receptor) | no binding | no binding | –
myc-SNX17 (full-length mouse SNX17 with a 9xmyc epitope) (protein, UniProt Q8BVL3 1-470) MHFSIPETESRSGDSGGSAYVAYNIHVNGVLHCRVRYSQLLGLHEQLRKEYGANVVPAFPPKKLFSLTPAEVEQRREQLEKYMQAVRQDPLLGSSETFNSFLRRAQQETQQVPTEEVSLEVLLSNGQKVLVTVLTSDQTEDVLEAVAAKLDLPDDLIGYFSLFLVREKEDGAFSFVRKLQEFELPYVSVTSLRSQEYKIVLRKSYWDSAYDDDVMENRVGLNLLYAQTVSDIEHGWILVTKEQHRQLKSLQEKVSKKEFLRLAQTLRHYGYLRFDACVADFPEKDCPVVVSAGNSELSLQLRLPGQQLREGSFRVTRMRCWRVTSSVPLPSGGTSSPSRGRGEVRLELAFEYLMSKDRLQWVTITSPQAIMMSICLQSMVDELMVKKSGGSIRKMLRRRVGGTLRRSDSQQAVKSPPLLESPDASRESMVKLSSKLSAVSLRGIGSPSTDASASAVHGNFAFEGIGDEDL | – | – | binds
myc-SNX17 105–470 (domain or fragment, UniProt Q8BVL3 105-470) AQQETQQVPTEEVSLEVLLSNGQKVLVTVLTSDQTEDVLEAVAAKLDLPDDLIGYFSLFLVREKEDGAFSFVRKLQEFELPYVSVTSLRSQEYKIVLRKSYWDSAYDDDVMENRVGLNLLYAQTVSDIEHGWILVTKEQHRQLKSLQEKVSKKEFLRLAQTLRHYGYLRFDACVADFPEKDCPVVVSAGNSELSLQLRLPGQQLREGSFRVTRMRCWRVTSSVPLPSGGTSSPSRGRGEVRLELAFEYLMSKDRLQWVTITSPQAIMMSICLQSMVDELMVKKSGGSIRKMLRRRVGGTLRRSDSQQAVKSPPLLESPDASRESMVKLSSKLSAVSLRGIGSPSTDASASAVHGNFAFEGIGDEDL | – | – | binds
myc-SNX17 2-250 (domain or fragment, UniProt Q8BVL3 2-250) HFSIPETESRSGDSGGSAYVAYNIHVNGVLHCRVRYSQLLGLHEQLRKEYGANVVPAFPPKKLFSLTPAEVEQRREQLEKYMQAVRQDPLLGSSETFNSFLRRAQQETQQVPTEEVSLEVLLSNGQKVLVTVLTSDQTEDVLEAVAAKLDLPDDLIGYFSLFLVREKEDGAFSFVRKLQEFELPYVSVTSLRSQEYKIVLRKSYWDSAYDDDVMENRVGLNLLYAQTVSDIEHGWILVTKEQHRQLKSL | – | – | no binding
myc-SNX17 200–470 (domain or fragment, UniProt Q8BVL3 200-470) VLRKSYWDSAYDDDVMENRVGLNLLYAQTVSDIEHGWILVTKEQHRQLKSLQEKVSKKEFLRLAQTLRHYGYLRFDACVADFPEKDCPVVVSAGNSELSLQLRLPGQQLREGSFRVTRMRCWRVTSSVPLPSGGTSSPSRGRGEVRLELAFEYLMSKDRLQWVTITSPQAIMMSICLQSMVDELMVKKSGGSIRKMLRRRVGGTLRRSDSQQAVKSPPLLESPDASRESMVKLSSKLSAVSLRGIGSPSTDASASAVHGNFAFEGIGDEDL | – | – | no binding
